# According to PubChem BioAssay AID504467 (National Center for Advancing Translational Sciences (NCATS), 2011):
# In all, about 330,000 compounds went through this assay and about 7,700 (2.3%) were called active. Inconclusive results, whose numbers are uncertain, are shown with a selection of clear calls. Calls come from the whole dose curve; as a rule, active = well fitted inhibition curve with a large enough effect; inconclusive = small, poorly fitted or top-dose-only effect, or effect the other way; inactive = flat fitted curve, though single readings scatter. Where the call is inconclusive, the potency comes from a doubtful curve fit.
# Experiment: qHTS screen for small molecules that inhibit ELG1-dependent DNA repair in human embryonic kidney (HEK293T) cells expressing luciferase-tagged ELG1; note: nearly all actives have a fitted effect of over 55% in size
# Details: HEK293T ELG1-luciferase reporter, luminescence, 16 h, DNA damage induced by 5-fluorouridine; activity change, negative = inhibition: at 46.1 µM (top of the series)
# In short: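 Luminescence from the luciferase reporter, measured 30 min after ONE-Glo reagent at room temperature, was the read-out. Beforehand, 2,000 cells per well were exposed for 16 hr at 37 °C to 5-fluorouridine together with compound or vehicle.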
# % is set by controls: 0 for no effect and ±100 for the full control effect; potency is the fitted concentration of half-maximal effect.
SMILES,"activity change, negative = inhibition",Potency
Cc1cccc2c3nc4ccccc4nc3n(CCCN3C(=O)c4ccccc4C3=O)c12,inactive: -17.1%,
COc1ccccc1/C=C1\CCC(C2CCCC2)C1=O (stereo not given),,"inconclusive: 20.6 µM [activator, partial curve]"
CCCOc1ccc(/C(O)=C2/C(=O)C(=O)N(CCCn3ccnc3)C2c2cccs2)cc1 (stereo not given),,"inconclusive: 13 µM [activator, partial curve]"
CCN(CC)C(=O)CSc1ncnc2c1cnn2Cc1ccccc1,,"inconclusive: 16.4 µM [inhibitor, partial curve]"
COc1ccccc1NC(=S)NC1CCCCCCCCCCC1,,"inconclusive: 11.6 µM [inhibitor, partial curve]"
Cc1cccc(NC(=O)C(C)SCc2nc3sc4c(c3c(=O)[nH]2)CCCC4)n1 (stereo not given),inactive: -1.02%,
N#CC(C#N)=C(N)Nc1cccc(Cl)c1,,"inconclusive: 5.17 µM [activator, full curve, poor fit]"
CCCc1nc2ccc(NC(C)=O)cc2c(=O)n1Cc1ccc(Cl)cc1,,"inconclusive: 6.51 µM [activator, single point]"
O=C(N/N=C/c1ccccc1F)NC12CC3CC(CC(C3)C1)C2,,"inconclusive: 11.6 µM [activator, partial curve, poor fit]"
O=C(Nc1nccs1)c1ccc(N2C(=O)[C@@H]3[C@H](C2=O)[C@H]2C=C[C@@H]3C2)cc1,,"inconclusive: 9.2 µM [activator, partial curve]"
NC(=O)c1c(NC(=O)c2cccnc2)sc2c1CCCC2,,"inconclusive: 5.8 µM [activator, partial curve]"
O=C(c1ccc([N+](=O)[O-])s1)N1CCc2ccccc21,,"inconclusive: 14.6 µM [activator, partial curve, poor fit]"
COc1ccc2nc(N3CCOCC3)cc(C)c2c1,,"inconclusive: 18.4 µM [activator, partial curve]"
COc1cc(NC(=O)n2ncc3cc(Cl)ccc32)cc(OC)c1,,"inconclusive: 23.1 µM [activator, partial curve]"
CCOC(=O)Cn1nnc2c(sc3nc4c(c(-c5ccc(Cl)cc5)c32)CCC4)c1=O,inactive: -25.5%,
CC(C)c1ccc(/C=c2\sc3nc(-c4ccncc4)nn3c2=O)cc1,,"inconclusive: 29.1 µM [activator, single point]"
CCOc1ccc(N2CC(C(=O)N3CCN(C(=O)c4ccco4)CC3)CC2=O)cc1 (stereo not given),inactive: 11.5%,
CC(C)c1ccccc1-n1c(SCC(=O)N2CCc3ccccc3C2)nc2ccccc2c1=O,,active: 25.9 µM
O=C(Nc1nnc(C23CC4CC(CC(C4)C2)C3)s1)c1ccc(N2C(=O)CCC2=O)cc1,,"inconclusive: 32.6 µM [activator, single point]"
CCN(CC)S(=O)(=O)c1ccc(O)c(C(=O)OCC(=O)Nc2cc(C)c(C)cc2[N+](=O)[O-])c1,,"inconclusive: 9.2 µM [inhibitor, partial curve]"
CC(C)Oc1ccccc1OCCCOc1cccc2cccnc12,,"inconclusive: 29.1 µM [inhibitor, single point]"
Cc1ccc2c(c1)N(C(=O)CCC(=O)Nc1ccccc1Cl)CC(C)O2 (stereo not given),,"inconclusive: 29.1 µM [inhibitor, single point]"
O=C(O)CCCC(=O)Nc1ccc(C(=O)NCc2cccnc2)cc1,inactive: 0%,
COc1ccc(-n2nc3cc(C)c(NC(=O)c4cccnc4)cc3n2)cc1,,"inconclusive: 4.61 µM [activator, partial curve]"

SMILES,"activity change, negative = inhibition",Potency
COc1ccc(CCNC(=O)C2CCC(=O)N2CCc2ccccc2)cc1OC (stereo not given),inactive: -7.74%,
O=C(c1cc2c(s1)CCCC2)n1cccn1,inactive: 15.5%,
Cc1ccc(-c2[nH]ncc2/C=N/n2c(COc3ccccc3)nc3ccccc3c2=O)cc1,,active: 5.17 µM
Cn1nccc1NC(=O)Nc1ccc(OC(F)(F)F)cc1,,"inconclusive: 18.3 µM [activator, single point]"
Cc1ccc(C2CC2c2n[nH]c(=S)n2-c2ccc(C)cc2)cc1 (stereo not given),inactive: 8.75%,
O=C(NCc1cccnc1)c1ccccc1NS(=O)(=O)c1ccc(F)cc1F,,"inconclusive: 4.11 µM [inhibitor, full curve]"
Nc1nonc1-n1nnc(C(=O)N/N=C/c2cccs2)c1CSc1ccccc1,inactive: 6.24%,
CC(OC(=O)Cc1c(F)cccc1Cl)C(=O)NCCC1=CCCCC1 (stereo not given),inactive: 4.23%,
C=CC[C@@H](CC(=O)N[C@H](CO)Cc1ccccc1)C(=O)N[C@H](C)COC(=O)[C@@H](CC=C)Cc1ccc(F)cc1,,"inconclusive: 20.6 µM [inhibitor, partial curve, poor fit]"
O=C(O)CCC(=O)N1CCN(c2nc(-c3ccccc3Cl)c3cc(Br)ccc3n2)CC1,,"inconclusive: 16.4 µM [activator, partial curve, poor fit]"
C(#Cc1ccccc1)CN1CCOCC1,inconclusive: 38.7% [activator],
O=c1cc(-c2ccccc2F)oc2ccccc12,,"inconclusive: 18.4 µM [activator, partial curve]"
COc1cccc(/C=C/c2ccc3cccc(O)c3n2)c1,,"inconclusive: 10.3 µM [activator, partial curve]"
O=C(NC(=S)Nc1ccccn1)c1ccccc1,,"inconclusive: 7.3 µM [activator, partial curve]"
CCN(CC)C(=O)c1ccc(Oc2ccc([N+](=O)[O-])cc2Cl)cc1,,"inconclusive: 29.1 µM [inhibitor, single point]"
N#Cc1c(-c2cccs2)nc(SCC(=O)c2cccs2)[nH]c1=O,inactive: -2.04%,
Cc1onc(-c2ccccc2)c1C(=O)Nc1cccc(OC(C)C)c1,,"inconclusive: 22.4 µM [inhibitor, single point]"
N#Cc1c(SCC(=O)Nc2cccc(F)c2)sc2c(O)cc(=O)[nH]c12,inactive: 2.68%,
O=S(=O)(Nc1cccc(-c2nc3cccnc3s2)c1)c1ccc2c(c1)OCCO2,,"inconclusive: 16.4 µM [inhibitor, partial curve]"
O=C(O)COc1c(-c2ccco2)oc2ccccc2c1=O,inactive: 13.3%,
Cn1ncc2c(Nc3ccc(O)cc3)nc(Cl)nc21,,"inconclusive: 9.2 µM [activator, partial curve]"
O=C(CSc1nc2c(oc3ccccc32)c(=O)n1CC1CCCO1)NCc1ccc(F)cc1 (stereo not given),inactive: 6.67%,
CCOC(=O)C1CCN(c2nc(C)nc3c2oc2ccccc23)CC1,,"inconclusive: 29.1 µM [inhibitor, single point]"
Clc1ccc(Nc2nc(-c3cccnc3)cs2)cc1,,"inconclusive: 20.6 µM [activator, partial curve]"

# One compound at a time, as listed above:
# O=C(O)COc1c(-c2ccco2)oc2ccccc2c1=O as listed: activity change, negative = inhibition: inactive: 13.3%
# CCN(CC)C(=O)c1ccc(Oc2ccc([N+](=O)[O-])cc2Cl)cc1 as listed: Potency: inconclusive: 29.1 µM [inhibitor, single point]

# Reformatted: 2 of the compounds above.
SMILES	activity change, negative = inhibition	Potency
O=S(=O)(Nc1cccc(-c2nc3cccnc3s2)c1)c1ccc2c(c1)OCCO2		inconclusive: 16.4 µM [inhibitor, partial curve]
O=C(O)COc1c(-c2ccco2)oc2ccccc2c1=O	inactive: 13.3%	

# (list continues)

SMILES,"activity change, negative = inhibition",Potency
CC/C(=N\NC(=O)CSCc1ccccc1Br)c1ccc2c(c1)OCCO2,,"inconclusive: 32.6 µM [inhibitor, single point]"
CC(=O)c1ccc(N/N=C2/CCCNC2=O)cc1,,"inconclusive: 9.2 µM [activator, partial curve]"
Cc1cccc(N2CCN(C(=O)c3cccc(S(=O)(=O)N4CCOCC4)c3)CC2)c1C,inactive: -7.84%,
O=C(Nc1ccccc1F)c1ccc2ncsc2c1,,"inconclusive: 14.6 µM [activator, partial curve]"
S=C(NCc1ccc2[nH]c3c(c2c1)CCCC3)Nc1ccccc1,inactive: -12.7%,
Cc1cccc(-n2c(SCc3cc(=O)n4ccsc4n3)nc3ccccc32)c1,,"inconclusive: 29.1 µM [inhibitor, partial curve, poor fit]"
CC(C)=CCN1CCN(Cc2nc(-c3ccccc3)cs2)CC1CCO (stereo not given),,"inconclusive: 0.366 µM [inhibitor, full curve, poor fit]"
O=C(O)/C=C\c1cn(-c2ccccc2)nc1-c1cc2ccccc2o1,,"inconclusive: 14.6 µM [activator, partial curve, poor fit]"
O=C(/C=C/c1ccco1)NC(=S)Nc1ccccc1O,,"inconclusive: 25.9 µM [activator, partial curve]"
CC(=O)c1ccc(OCCCOc2cccc3cccnc23)cc1,inactive: 13.3%,
S=C1c2ccccc2CN1c1ccccc1,,"inconclusive: 20.6 µM [activator, partial curve]"
CCCCOc1ccc(N2C(=O)CC(N(O)c3ccccc3)C2=O)cc1 (stereo not given),,"inconclusive: 14.6 µM [activator, partial curve, poor fit]"
COC1(OC)C(/C=C/c2ccc(Cl)cc2)C(C#N)(C#N)C1(OC)OC (stereo not given),,"inconclusive: 29.1 µM [inhibitor, single point]"
Cc1cccc(-n2ncc3c(N(C)C4CCCCC4)ncnc32)c1,,"inconclusive: 0.461 µM [activator, partial curve]"
NS(=O)(=O)c1ccc(CCNC(=O)COc2ccc3c4c(c(=O)oc3c2)CCC4)cc1,inactive: 1.35%,
CCOC(=O)N1CCN(C(=O)C2CCCN(S(=O)(=O)c3c(C)cc(C)cc3C)C2)CC1 (stereo not given),,"inconclusive: 29.1 µM [inhibitor, single point]"
Cc1ccc(-c2nc3ccccc3[nH]2)cc1NC(=O)/C=C/c1ccco1,,"inconclusive: 20.6 µM [inhibitor, single point]"
Cc1ccc(-c2ccc(C(=O)Nc3cccc(F)c3)o2)c2ccccc12,,"inconclusive: 29.1 µM [inhibitor, single point]"
O=C(CN1CCOCC1)NNC(=O)c1ccc(Cl)cc1,inactive: -0.668%,
Cc1ccc(S(=O)(=O)NC(=O)N(C)C2CCCCC2)cc1,inactive: -4.1%,
COc1ccccc1NC(=O)COc1ccc2ccccc2c1,,"inconclusive: 32.6 µM [activator, partial curve, poor fit]"
